# Values from PubChem BioAssay AID1259308 (NCATS, 2017).
# Screen: 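Knock-downs that increase output of a recombinant reporter protein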 (primary screen)
# Cell system: human HEK293 embryonic kidney cells stably expressing firefly luciferase (HEK-CMV-Luc2-Hygro)
# Reagents: single siRNA against human genes, 0.8 pmol siRNA per well
# Time to read-out: 72 h
# Measurement: 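Luciferase light (ONE-Glo) measured on one replicate plate set and viability (CellTiter-Glo) on the other, scaled to a negative control siRNA, with robust z-scores and luciferase per cell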
# Scale: total luciferase, z-score and total luciferase, % of control: higher = more reporter protein produced; luciferase per cell, z-score: higher = more reporter output per viable cell; viable cells, % of control: higher = more viable cells
# Hit rule: 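Active when the median/MAD z-score for overall luciferase is greater than 3; a gene was taken forward for validation with new siRNAs if at least two of its three siRNAs passed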
# Meaning of the calls: active = raised luciferase; inactive = no rise
# This is an unselected part of about 59,000 reagents. About 1,510 of all reagents (2.6%) count as active. 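Calls use total luciferase alone and ignore viability, so some active siRNAs may act by altering cell number.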 Unmarked entries are inactive. The numbers tell different reagents against one gene apart.
Gene,reagent no.,"total luciferase, z-score","total luciferase, % of control","luciferase per cell, z-score","viable cells, % of control"
MLH1,1,1.37,109,2.28,67
MLH1,2,-0.658,68.8,0.318,70.7
MLH1,3,-0.501,71.9,-0.523,92.2
OR52A4P,1,-0.0295,81.3,0.18,86.7
OR52A4P,2,1.5,112,1.73,79.1
OR52A4P,3,1.39,110,0.365,111
LINC00602,1,-0.616,69.6,-0.853,97.4
LINC00602,2,0.819,98.2,0.255,103
LINC00602,3,0.751,96.8,0.196,103
SH3BP5L,1,0.399,89.8,1.92,60.6
SH3BP5L,2,0.391,89.7,-0.095,103
SH3BP5L,3,-0.821,65.6,-1.02,95.9
MED11,1,-1.68,48.4,-0.467,61.2
MED11,2,-0.124,79.4,0.458,78.7
MED11,3,0.367,89.2,1.09,74.7

Records above whose target name begins with L or l (3):
Gene,reagent no.,"total luciferase, z-score","total luciferase, % of control","luciferase per cell, z-score","viable cells, % of control"
LINC00602,1,-0.616,69.6,-0.853,97.4
LINC00602,2,0.819,98.2,0.255,103
LINC00602,3,0.751,96.8,0.196,103

Further results follow.
Gene,reagent no.,"total luciferase, z-score","total luciferase, % of control","luciferase per cell, z-score","viable cells, % of control"
BPY2,1,-0.22,77.5,-0.665,103
BPY2,2,1.47,111,0.988,95.7
BPY2,3,-0.0026,81.8,-0.515,105
PDCD1,1,1.54,112,1.81,77.9
PDCD1,2,-0.576,70.4,0.817,63.5
PDCD1,3,1.25,107,1.14,88.4
ROS1,1,0.533,92.5,0.199,98.1
ROS1,2,1.62,114,1.72,81
ROS1,3,-0.724,67.5,-1.15,102
